# From patent US20220310273A1, “SYSTEM FOR EVALUATING SENSITIVITY TO ANTI-CANCER AGENT AND A COMPUTER READABLE MEDIUM STORING PROGRAMS EXECUTING AN EVALUATING METHOD” (MBD Co., Ltd., priority 2021, published 2022)
# At least one read-out could not be matched to a standard name with certainty.
# Test system: cancer cells of biological individuals diagnosed with breast cancer
# Assay: evaluation of sensitivity to doxorubicin (DOX) in patient tissues, using cell colony growth rate and IC50 value
# Conditions: patient tissue #2 (breast cancer); anticancer response factor only
compound,measurement,value
COc1cccc2c1C(=O)c1c(O)c3c(c(O)c1C2=O)C[C@@](O)(C(=O)CO)C[C@@H]3O[C@H]1C[C@H](N)[C@H](O)[C@H](C)O1 [doxorubicin],doxorubicin sensitivity considered from IC50 value alone,high
